Data as given in paper PMC12714136, “14-3-3θ phosphorylation at S232 reduces its interactome and regulates axonal trafficking” (Disease Models & Mechanisms, 2025).
Changes are numbered by the printed parent chain. Numbers in names are those of the source. No constants are given. Whether binding was seen depends on the method and setting. Binding seen in cells or lysates may run through a third protein. Some entries that bind do so weakly or less than the wild type. For some of these results: Tags and fused reporters may be left off the sequences shown. One block for each binder: values may come before it.

Key:
[1] = target: T1, dynamin 1 (M17 neuroblastoma cells) (human (endogenous in SK-N-BE(2)-M17)) (UniProt Q05193); test: proximity ligation; fixed SK-N-BE(2)-M17 cells; antibodies against 14-3-3θ and β-spectrin or dynamin 1; single-antibody controls
T1 sequence: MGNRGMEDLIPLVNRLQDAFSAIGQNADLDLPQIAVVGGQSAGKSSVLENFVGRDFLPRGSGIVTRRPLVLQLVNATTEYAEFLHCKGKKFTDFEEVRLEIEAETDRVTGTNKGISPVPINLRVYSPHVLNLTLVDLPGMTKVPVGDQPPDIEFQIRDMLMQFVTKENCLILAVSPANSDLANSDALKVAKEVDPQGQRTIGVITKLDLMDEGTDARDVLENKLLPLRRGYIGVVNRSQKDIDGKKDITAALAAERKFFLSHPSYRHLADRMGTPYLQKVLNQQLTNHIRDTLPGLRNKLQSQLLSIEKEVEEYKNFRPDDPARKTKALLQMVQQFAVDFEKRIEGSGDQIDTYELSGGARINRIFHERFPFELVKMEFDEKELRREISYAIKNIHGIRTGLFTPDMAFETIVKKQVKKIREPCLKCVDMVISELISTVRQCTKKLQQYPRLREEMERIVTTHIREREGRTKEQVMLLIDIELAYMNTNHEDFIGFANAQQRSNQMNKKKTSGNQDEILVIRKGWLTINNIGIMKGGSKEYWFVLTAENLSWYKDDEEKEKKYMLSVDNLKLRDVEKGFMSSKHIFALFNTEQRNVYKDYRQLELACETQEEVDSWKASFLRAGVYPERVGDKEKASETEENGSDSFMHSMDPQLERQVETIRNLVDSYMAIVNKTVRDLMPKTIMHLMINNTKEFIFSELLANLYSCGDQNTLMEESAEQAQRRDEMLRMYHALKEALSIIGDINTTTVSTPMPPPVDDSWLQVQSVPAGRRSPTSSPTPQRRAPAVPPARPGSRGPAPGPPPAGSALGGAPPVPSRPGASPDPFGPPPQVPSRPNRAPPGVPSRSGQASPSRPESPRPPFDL

[2] = target: T2, dynamin 1 (mouse cortex) (mouse (endogenous in cortex)) (UniProt P39053); test: co-IP; wild-type mouse cortex in Pierce IP buffer (25 mM Tris-HCl pH 7.4, 150 mM NaCl, 1 mM EDTA, 1% NP40, 5% glycerol); IP with anti-β-spectrin or anti-dynamin 1 antibody overnight, rabbit IgG control, dynabeads; blot for 14-3-3θ
T2 sequence: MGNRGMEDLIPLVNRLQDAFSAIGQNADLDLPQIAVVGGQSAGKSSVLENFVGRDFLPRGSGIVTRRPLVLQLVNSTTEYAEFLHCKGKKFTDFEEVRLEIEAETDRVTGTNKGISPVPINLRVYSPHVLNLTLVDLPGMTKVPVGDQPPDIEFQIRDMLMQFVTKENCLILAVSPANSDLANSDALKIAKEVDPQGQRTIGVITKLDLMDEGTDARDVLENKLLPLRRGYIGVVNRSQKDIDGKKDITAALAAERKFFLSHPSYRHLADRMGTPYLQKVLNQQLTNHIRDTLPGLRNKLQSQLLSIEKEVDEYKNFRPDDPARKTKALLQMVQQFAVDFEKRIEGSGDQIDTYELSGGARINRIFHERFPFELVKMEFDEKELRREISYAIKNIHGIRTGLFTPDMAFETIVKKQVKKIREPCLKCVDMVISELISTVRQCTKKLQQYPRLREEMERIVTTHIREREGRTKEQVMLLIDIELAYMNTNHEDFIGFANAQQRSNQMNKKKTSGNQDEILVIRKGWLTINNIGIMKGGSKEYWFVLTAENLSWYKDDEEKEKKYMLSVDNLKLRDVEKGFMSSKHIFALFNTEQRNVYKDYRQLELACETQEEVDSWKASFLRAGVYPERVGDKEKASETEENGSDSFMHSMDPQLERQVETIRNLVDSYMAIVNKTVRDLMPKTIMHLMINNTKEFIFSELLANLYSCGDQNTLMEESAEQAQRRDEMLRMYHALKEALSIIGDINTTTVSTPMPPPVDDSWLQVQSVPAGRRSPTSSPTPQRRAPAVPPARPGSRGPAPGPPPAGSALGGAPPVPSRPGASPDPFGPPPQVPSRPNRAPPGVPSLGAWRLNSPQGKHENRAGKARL

[3] = target: T3, breakpoint cluster region (M17 neuroblastoma cells) (human (endogenous in SK-N-BE(2)-M17)) (UniProt P11274); test: proximity ligation; fixed M17 cells stably expressing V5-tagged 14-3-3θ S232A or S232D; anti-V5 with anti-NDEL1 or anti-BCR antibody; DuoLink probes; objects per area, normalised
T3 sequence: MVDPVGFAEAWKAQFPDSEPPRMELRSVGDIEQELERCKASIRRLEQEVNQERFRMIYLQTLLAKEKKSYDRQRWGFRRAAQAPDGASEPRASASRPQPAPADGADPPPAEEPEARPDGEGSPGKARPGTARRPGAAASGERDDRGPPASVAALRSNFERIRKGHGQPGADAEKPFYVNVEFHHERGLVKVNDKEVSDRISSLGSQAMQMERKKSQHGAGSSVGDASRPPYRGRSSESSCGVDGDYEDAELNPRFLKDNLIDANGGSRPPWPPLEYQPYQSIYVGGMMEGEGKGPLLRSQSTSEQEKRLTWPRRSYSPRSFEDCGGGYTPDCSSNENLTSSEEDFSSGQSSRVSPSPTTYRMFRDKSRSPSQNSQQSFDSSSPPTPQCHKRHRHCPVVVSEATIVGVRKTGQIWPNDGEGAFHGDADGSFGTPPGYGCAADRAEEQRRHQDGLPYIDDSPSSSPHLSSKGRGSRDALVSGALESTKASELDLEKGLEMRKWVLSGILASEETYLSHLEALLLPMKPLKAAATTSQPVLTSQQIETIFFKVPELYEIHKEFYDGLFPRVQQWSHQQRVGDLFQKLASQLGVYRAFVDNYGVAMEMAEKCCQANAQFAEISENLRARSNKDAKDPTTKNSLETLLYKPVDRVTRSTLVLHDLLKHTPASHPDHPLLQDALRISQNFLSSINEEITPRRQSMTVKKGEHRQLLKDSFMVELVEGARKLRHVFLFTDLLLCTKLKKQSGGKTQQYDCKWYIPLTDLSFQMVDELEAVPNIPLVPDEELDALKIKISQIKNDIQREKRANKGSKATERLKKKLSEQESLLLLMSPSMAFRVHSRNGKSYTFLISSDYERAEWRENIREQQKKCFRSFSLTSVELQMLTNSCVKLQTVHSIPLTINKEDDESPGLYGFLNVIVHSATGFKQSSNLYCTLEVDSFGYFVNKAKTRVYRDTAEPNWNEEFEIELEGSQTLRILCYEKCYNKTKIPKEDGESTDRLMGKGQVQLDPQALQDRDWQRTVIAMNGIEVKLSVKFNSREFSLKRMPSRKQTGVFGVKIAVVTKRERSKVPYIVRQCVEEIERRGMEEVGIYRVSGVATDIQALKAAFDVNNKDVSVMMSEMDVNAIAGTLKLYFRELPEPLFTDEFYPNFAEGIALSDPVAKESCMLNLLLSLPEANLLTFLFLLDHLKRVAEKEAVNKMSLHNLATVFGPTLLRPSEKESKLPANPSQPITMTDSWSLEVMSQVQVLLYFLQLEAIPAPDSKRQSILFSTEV

[4] = target: T4, nuclear distribution protein nude-like 1 (M17 neuroblastoma cells) (human (endogenous in SK-N-BE(2)-M17)) (UniProt Q9GZM8); test: as above
T4 sequence: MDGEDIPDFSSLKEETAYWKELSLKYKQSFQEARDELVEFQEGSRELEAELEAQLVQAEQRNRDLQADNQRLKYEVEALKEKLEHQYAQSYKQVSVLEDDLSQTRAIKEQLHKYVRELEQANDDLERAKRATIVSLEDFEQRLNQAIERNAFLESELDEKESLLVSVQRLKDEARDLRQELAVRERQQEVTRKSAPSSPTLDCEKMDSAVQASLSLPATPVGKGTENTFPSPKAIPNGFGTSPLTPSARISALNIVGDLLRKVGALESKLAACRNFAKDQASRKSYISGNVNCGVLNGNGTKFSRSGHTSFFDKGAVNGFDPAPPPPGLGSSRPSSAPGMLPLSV

- binding [1]: binds
B1: 14-3-3θ (endogenous, M17 neuroblastoma cells) (protein, UniProt P27348 1-245)
chain: MEKTELIQKAKLAEQAERYDDMATCMKAVTEQGAELSNEERNLLSVAYKNVVGGRRSAWRVISSIEQKTDTSDKKLQLIKDYREKVESELRSICTTVLELLDKYLIANATNPESKVFYLKMKGDYFRYLAEVACGDDRKQTIDNSQGAYQEAFDISKKEMQPTHPIRLGLALNFSVFYYEILNNPELACTLAKTAFDEAIAELDTLNEDSYKDSTLIMQLLRDNLTLWTSDSAGEECDAAEGAEN

- binding [2]: binds
B2: 14-3-3θ (wild type, mouse cortex) (protein, UniProt P68254 1-245)
chain: B1 chain with D143E

- binding [3]: binds
B3: V5-tagged 14-3-3θ S232A (natural protein, UniProt P27348 1-245, looked up)
chain: B1 chain with S232A
notes: 14-3-3 protein theta with S232A; also called V5-14-3-3θ phospho-mutant S232A; source: SK-N-BE(2)-M17 cells, stably transfected (fixed cells)

- binding [4]: binds
B4: V5-tagged 14-3-3θ S232D (protein, UniProt P27348 1-245)
chain: B1 chain with S232D
